Experimental data from article PMC7039684.
Results are given in words; binding and its absence hold for the method and conditions named. In cells and extracts the contact can be indirect. Some results given as binding are weak or reduced against the parent protein; the word gives no strength.

By UniProt entry, the sequences of proteins in these tests, tags left out. Residues count along the entry.
UniProt Q14643: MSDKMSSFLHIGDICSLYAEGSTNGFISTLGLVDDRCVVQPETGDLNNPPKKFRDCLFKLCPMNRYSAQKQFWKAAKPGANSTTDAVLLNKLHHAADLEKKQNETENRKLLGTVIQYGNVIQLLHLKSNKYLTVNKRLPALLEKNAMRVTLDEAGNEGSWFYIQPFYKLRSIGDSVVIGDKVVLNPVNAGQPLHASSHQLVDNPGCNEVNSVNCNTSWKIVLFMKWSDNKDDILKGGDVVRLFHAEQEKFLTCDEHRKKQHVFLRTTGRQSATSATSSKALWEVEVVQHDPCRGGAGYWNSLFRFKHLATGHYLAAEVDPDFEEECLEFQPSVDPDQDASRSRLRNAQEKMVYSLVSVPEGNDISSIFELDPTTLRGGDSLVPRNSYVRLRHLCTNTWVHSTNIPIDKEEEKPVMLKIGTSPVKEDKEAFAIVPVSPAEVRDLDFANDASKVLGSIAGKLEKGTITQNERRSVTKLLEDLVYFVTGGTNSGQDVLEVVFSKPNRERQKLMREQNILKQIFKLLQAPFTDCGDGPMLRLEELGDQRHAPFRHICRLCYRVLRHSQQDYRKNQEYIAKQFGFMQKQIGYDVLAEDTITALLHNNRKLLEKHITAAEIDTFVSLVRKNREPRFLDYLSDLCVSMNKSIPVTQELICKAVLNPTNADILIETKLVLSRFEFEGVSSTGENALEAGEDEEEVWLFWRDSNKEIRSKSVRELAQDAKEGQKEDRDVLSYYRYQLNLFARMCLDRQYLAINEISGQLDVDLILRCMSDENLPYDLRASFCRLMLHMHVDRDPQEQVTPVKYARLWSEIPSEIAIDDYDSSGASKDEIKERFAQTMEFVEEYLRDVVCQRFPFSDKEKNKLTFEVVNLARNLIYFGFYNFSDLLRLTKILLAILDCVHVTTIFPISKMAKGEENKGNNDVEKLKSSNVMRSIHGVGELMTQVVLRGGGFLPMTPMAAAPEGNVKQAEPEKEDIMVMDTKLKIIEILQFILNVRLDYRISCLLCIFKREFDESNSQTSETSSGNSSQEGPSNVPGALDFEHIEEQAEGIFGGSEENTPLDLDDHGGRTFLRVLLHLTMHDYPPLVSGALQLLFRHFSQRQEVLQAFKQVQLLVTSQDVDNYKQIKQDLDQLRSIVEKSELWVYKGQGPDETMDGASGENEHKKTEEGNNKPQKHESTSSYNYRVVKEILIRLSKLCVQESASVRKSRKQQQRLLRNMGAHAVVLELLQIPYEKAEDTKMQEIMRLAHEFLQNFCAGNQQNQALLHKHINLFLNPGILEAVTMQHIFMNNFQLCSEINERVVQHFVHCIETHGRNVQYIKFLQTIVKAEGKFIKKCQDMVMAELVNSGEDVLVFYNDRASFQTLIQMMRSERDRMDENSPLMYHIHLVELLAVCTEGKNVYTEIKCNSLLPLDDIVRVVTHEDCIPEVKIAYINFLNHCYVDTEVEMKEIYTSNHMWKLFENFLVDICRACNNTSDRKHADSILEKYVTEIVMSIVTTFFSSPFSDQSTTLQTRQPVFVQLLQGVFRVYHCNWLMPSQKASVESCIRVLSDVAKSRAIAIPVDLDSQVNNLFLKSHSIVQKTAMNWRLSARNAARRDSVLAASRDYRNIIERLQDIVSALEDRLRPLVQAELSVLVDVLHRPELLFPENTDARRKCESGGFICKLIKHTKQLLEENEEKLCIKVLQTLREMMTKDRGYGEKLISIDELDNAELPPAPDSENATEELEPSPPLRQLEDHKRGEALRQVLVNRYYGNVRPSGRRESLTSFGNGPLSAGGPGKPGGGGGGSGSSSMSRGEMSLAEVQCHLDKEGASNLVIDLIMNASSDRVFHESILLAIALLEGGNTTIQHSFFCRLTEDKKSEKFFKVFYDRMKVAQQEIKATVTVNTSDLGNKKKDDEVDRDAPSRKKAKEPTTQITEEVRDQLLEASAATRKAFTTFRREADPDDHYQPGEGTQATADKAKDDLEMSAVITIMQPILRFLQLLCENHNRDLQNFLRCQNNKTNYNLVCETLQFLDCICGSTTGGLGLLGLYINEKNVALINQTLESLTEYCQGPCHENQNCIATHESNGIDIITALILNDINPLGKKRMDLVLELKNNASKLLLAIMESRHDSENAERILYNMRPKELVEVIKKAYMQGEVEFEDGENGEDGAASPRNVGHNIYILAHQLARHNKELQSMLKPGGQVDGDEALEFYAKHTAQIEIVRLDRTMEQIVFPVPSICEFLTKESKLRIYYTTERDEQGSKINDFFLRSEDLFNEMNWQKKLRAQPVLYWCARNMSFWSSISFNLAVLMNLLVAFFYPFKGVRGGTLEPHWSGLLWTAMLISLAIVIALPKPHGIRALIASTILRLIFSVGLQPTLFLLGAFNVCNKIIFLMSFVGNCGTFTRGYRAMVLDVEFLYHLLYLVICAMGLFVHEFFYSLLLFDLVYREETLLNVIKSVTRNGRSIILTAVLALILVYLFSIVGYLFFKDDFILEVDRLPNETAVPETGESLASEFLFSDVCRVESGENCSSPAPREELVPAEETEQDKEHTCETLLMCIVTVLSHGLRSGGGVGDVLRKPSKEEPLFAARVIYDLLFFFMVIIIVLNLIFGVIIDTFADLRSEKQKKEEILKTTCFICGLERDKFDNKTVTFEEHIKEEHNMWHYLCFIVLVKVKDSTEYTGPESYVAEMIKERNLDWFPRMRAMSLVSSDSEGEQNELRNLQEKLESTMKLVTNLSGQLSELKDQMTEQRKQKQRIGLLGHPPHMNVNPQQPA
UniProt Q16611: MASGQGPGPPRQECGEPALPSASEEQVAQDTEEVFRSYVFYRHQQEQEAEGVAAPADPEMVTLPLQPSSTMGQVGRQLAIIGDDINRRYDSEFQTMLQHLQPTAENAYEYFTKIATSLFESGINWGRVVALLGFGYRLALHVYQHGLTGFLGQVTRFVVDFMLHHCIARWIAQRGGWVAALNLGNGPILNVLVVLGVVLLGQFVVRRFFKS
UniProt P16056, residues 1001-1374: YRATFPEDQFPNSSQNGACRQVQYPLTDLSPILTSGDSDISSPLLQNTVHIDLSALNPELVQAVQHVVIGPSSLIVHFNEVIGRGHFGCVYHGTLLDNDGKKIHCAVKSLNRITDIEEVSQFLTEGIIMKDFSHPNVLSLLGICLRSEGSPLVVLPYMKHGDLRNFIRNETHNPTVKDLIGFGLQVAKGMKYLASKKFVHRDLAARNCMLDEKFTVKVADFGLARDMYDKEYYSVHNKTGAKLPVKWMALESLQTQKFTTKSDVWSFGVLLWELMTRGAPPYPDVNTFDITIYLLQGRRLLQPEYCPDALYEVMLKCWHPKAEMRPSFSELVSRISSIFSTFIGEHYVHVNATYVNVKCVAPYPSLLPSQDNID

What was measured:
Assay in all cases: FRET or BRET; FLIM-FRET by TCSPC in live co-transfected HEK293T cells, 37°C, L-15 medium; lifetime of the mT2 donor against donor alone; SYFP2 or EYFP fusion as acceptor
IP3R1-EYFP = IP3R1-EYFP (UniProt Q14643)
BOK-mTurquoise2 = target: T1, BOK-mTurquoise2 (UniProt Q9UMX3)
T1 sequence: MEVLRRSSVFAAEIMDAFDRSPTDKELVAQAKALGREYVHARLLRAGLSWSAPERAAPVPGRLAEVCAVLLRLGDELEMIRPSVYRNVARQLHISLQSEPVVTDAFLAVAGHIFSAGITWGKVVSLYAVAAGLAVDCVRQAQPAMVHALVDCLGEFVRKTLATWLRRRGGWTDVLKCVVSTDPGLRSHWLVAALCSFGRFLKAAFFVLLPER

BOK-SYFP2 = target: T2, BOK-SYFP2 (UniProt Q9UMX3)
T2 sequence: T1 sequence

| Substance | binding (IP3R1-EYFP) | binding (BOK-mTurquoise2) | binding (BOK-SYFP2) |
| --- | --- | --- | --- |
| BAK-mTurquoise2 (from UniProt Q16611 1-211) | no binding | – | – |
| BCL-XL-SYFP2 (from UniProt Q07817-1 1-233) | – | binds | – |
| p40MET-mTurquoise2 (from UniProt P16056 1001-1374) (domain or fragment) | no binding | – | no binding |
